Values quoted from earlier work in patent publication US20220008382A1, “ALCOHOL ANTIDOTE” (Evanium Healthcare GmbH, priority 2018, published 2022).

Details: at 25° C.; cited from earlier work

In the case of OC[C@H]1O[C@@H]2O[C@H]3[C@H](O)[C@@H](O)[C@@H](O[C@H]4[C@H](O)[C@@H](O)[C@@H](O[C@H]5[C@H](O)[C@@H](O)[C@@H](O[C@H]6[C@H](O)[C@@H](O)[C@@H](O[C@H]7[C@H](O)[C@@H](O)[C@@H](O[C@H]8[C@H](O)[C@@H](O)[C@@H](O[C@H]9[C@H](O)[C@@H](O)[C@@H](O[C@H]1[C@H](O)[C@H]2O)O[C@@H]9CO)O[C@@H]8CO)O[C@@H]7CO)O[C@@H]6CO)O[C@@H]5CO)O[C@@H]4CO)O[C@@H]3CO [γ-CD, γ-cyclodextrin], the Water solubility is listed as 223 mg/mL.
